Among the data in the supplement of paper PMC10849652 are log2 fold change values, retold here.

The chains behind the UniProt entries cited, without tags or fusion partners. Where a name states a change or a piece, a line headed by the entry shows the natural chain unless it says otherwise.
UniProt O60231: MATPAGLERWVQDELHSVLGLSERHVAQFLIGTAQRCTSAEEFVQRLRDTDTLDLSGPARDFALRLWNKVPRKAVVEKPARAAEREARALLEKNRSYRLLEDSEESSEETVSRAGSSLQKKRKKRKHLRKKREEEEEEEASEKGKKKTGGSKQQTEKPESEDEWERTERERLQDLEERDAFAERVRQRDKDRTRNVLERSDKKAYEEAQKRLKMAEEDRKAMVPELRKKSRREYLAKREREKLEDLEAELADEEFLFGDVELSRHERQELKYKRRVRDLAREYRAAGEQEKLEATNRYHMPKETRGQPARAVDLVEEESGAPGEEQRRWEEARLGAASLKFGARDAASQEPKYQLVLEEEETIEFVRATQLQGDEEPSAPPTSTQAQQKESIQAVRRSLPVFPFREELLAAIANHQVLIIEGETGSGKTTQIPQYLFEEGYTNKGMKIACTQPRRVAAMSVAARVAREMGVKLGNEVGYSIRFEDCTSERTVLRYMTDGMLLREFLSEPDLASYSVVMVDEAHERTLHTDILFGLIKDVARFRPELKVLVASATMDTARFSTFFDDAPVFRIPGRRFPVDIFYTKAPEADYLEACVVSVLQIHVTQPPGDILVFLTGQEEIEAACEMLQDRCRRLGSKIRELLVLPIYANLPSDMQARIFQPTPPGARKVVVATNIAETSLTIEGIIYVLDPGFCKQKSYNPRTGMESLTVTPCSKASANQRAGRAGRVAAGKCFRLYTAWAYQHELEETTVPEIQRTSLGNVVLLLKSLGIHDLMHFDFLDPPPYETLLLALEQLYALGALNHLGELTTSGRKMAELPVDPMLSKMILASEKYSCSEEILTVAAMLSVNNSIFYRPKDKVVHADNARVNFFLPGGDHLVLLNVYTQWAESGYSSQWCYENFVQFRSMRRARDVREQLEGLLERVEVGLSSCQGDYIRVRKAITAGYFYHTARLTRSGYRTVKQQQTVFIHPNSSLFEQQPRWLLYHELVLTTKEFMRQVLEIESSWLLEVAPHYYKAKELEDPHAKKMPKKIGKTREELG
UniProt P98153: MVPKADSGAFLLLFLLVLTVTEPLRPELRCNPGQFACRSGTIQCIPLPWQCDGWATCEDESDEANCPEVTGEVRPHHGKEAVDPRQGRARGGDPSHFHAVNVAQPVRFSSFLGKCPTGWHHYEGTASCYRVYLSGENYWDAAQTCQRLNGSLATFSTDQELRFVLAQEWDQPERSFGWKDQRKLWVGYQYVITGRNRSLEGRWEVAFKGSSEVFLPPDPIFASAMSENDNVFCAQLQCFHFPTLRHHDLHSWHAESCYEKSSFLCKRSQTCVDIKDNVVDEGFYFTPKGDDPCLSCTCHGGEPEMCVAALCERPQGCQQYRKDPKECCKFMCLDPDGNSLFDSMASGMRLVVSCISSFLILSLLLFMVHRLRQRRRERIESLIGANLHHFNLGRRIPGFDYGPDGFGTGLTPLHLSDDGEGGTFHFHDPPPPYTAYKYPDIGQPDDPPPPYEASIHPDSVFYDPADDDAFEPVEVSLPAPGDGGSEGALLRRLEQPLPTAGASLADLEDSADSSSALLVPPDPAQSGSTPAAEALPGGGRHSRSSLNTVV
UniProt Q13838, whole entry, looked up: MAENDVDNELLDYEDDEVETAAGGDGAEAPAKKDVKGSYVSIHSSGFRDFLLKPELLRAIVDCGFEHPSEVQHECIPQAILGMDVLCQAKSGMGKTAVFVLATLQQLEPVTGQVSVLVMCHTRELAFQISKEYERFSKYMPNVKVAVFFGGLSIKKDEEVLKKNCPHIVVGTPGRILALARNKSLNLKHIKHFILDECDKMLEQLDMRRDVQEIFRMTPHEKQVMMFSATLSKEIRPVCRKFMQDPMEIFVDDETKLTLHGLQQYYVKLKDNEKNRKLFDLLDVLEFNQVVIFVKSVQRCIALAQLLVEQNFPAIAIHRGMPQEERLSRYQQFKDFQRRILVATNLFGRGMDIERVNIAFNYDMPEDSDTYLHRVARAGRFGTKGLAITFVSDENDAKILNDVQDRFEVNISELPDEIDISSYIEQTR
UniProt Q9NQI0, whole entry, looked up: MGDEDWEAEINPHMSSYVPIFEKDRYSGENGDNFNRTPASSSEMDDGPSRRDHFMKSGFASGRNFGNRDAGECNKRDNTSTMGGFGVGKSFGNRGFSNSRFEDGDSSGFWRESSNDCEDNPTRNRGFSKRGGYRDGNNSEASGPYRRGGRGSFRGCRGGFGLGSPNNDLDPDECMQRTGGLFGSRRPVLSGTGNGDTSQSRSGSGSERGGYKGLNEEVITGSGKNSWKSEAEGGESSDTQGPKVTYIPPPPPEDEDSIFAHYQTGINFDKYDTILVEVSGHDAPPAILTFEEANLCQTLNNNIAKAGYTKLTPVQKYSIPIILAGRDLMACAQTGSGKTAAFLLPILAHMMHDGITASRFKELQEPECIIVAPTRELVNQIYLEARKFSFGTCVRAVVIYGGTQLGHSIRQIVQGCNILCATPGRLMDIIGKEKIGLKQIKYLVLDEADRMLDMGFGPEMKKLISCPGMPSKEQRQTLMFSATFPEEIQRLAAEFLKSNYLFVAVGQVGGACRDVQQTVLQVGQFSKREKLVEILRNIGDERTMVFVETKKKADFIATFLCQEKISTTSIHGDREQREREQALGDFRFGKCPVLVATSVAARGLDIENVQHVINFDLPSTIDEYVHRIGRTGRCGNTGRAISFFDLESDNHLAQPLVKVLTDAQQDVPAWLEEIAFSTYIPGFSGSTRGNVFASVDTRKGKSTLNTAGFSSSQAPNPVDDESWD
UniProt Q7L2E3: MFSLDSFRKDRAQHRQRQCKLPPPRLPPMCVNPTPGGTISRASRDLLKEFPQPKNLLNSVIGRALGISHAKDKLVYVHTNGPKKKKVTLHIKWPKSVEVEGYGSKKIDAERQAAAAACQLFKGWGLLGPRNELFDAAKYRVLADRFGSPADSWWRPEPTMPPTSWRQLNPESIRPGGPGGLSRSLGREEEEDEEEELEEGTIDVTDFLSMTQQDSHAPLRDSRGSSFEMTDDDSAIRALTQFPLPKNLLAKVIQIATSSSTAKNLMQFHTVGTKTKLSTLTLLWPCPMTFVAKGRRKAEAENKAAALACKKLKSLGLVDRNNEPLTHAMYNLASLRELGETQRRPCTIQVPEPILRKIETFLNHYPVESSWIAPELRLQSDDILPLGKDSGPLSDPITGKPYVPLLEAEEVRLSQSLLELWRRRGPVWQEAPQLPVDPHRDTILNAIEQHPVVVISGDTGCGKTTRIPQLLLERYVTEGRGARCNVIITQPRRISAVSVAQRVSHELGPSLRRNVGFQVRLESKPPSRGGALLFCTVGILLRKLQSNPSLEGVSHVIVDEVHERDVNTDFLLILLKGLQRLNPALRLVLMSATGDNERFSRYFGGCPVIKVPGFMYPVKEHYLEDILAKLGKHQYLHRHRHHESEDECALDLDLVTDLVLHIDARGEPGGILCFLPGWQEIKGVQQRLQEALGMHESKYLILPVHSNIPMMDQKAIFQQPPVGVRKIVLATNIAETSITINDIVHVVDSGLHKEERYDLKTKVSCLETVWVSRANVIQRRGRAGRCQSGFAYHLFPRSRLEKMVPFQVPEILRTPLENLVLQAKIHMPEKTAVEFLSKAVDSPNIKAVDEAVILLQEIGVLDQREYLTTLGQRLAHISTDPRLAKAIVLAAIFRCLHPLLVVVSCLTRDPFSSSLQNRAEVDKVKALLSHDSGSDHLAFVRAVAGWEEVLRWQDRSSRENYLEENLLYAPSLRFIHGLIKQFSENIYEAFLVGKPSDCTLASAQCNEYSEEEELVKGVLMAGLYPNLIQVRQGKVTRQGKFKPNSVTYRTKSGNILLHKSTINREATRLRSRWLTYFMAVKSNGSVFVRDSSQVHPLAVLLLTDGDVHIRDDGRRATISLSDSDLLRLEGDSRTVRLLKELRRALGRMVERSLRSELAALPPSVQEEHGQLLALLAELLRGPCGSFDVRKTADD
UniProt Q08495: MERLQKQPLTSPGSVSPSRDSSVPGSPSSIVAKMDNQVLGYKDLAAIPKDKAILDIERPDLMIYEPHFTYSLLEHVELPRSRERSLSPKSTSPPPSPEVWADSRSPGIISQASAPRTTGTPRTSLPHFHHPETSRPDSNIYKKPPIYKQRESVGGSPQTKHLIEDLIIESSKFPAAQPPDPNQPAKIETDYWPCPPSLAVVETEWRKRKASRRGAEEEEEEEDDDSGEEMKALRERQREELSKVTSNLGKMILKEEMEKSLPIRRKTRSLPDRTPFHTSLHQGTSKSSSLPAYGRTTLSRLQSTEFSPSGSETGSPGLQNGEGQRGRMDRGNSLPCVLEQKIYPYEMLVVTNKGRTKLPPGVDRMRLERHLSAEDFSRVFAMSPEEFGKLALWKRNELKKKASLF
UniProt O00148, whole entry, looked up: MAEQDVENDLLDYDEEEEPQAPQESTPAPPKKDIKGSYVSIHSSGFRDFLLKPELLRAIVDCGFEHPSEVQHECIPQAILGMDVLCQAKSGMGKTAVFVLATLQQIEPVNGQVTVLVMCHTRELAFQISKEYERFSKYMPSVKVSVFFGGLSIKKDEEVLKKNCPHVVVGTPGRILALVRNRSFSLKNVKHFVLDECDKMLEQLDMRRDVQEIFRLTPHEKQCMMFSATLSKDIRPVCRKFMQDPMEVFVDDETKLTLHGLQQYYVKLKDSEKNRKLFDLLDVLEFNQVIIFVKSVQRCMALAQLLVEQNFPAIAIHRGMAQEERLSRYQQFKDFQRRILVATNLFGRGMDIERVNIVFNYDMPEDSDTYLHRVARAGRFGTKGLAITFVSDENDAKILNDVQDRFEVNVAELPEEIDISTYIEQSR
UniProt Q7Z4W1: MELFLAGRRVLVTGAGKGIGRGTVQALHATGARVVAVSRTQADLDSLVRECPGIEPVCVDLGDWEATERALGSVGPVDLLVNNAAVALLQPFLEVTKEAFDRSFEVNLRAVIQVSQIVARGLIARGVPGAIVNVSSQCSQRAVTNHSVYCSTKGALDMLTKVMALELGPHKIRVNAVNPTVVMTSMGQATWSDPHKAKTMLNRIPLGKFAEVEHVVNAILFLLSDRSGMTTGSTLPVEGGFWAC
UniProt O60884: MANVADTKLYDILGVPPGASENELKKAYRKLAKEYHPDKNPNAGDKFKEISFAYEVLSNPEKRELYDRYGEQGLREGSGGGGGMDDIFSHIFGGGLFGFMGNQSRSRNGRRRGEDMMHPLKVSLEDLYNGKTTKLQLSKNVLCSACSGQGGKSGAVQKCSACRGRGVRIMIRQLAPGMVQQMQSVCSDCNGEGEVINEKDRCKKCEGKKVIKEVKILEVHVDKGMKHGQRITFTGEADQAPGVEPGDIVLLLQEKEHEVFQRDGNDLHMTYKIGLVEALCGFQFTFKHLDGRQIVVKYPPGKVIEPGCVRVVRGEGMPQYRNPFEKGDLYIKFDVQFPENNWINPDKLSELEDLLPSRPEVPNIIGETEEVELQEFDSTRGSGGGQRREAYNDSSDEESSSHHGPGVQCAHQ
UniProt O76075: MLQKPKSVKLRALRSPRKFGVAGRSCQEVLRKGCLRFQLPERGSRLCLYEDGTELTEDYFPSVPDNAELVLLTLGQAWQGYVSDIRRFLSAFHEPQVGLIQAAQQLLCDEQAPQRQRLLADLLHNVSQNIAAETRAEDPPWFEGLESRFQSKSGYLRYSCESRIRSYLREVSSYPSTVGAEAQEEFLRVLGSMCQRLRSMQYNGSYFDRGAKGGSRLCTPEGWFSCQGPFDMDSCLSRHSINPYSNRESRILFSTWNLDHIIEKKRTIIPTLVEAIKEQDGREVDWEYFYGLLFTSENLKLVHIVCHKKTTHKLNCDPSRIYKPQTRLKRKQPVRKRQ
UniProt P17844: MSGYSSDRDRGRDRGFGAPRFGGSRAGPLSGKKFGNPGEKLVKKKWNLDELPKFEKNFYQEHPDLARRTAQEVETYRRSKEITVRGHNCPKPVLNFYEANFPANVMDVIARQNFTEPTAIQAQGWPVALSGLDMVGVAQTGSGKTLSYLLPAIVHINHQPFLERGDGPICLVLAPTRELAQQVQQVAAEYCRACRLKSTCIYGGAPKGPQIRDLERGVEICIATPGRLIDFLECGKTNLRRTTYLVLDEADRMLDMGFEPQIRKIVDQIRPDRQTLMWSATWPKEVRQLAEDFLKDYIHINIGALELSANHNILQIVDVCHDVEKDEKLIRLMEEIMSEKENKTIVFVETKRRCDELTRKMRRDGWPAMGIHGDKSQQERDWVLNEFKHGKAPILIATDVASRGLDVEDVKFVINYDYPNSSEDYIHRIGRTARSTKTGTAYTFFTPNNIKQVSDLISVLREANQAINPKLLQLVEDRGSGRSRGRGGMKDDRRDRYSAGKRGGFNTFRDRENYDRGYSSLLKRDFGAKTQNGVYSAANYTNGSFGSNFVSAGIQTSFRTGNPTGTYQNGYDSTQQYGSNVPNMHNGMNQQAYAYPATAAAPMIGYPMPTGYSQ

This is one part of the list.

Assay in all cases: log2 fold change, soluble protein after heating vs DMSO (PISA); higher = thermal stabilisation; K562 cells, 10 uM, 30 min; active = over 0.2 and 3.5 SD of the protein, either way, in both replicates (recomputed)
Compound in assay [1]: NC(=O)Nc1cc(-c2cccc(F)c2)sc1C(=O)N[C@H]1CCCNC1
The essentials: (§1)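 K562 cells at 2×10^6 cells/mL were treated for 30 min with 10 μM compound, and aliquots were heated for 3 min over 48°C-58°C before pooling. Extraction used PBS with 0.5% NP-40 at 4°C, and soluble protein was the supernatant after 21,000xg for 90 min, measured by TMTpro 16plex LC-MS/MS with channel sums equalised. Thermal stability values, relative to control samples and from duplicates, are log2 fold changes.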

Compound in assay [2]: NC(=O)c1cnc(N[C@@H]2CCCC[C@@H]2N)nc1Nc1cccc(-n2nccn2)c1
The essentials: as §1

Compound in assay [3]: NC1(c2ccc(-c3nc4ccn5c(=O)[nH]nc5c4cc3-c3ccccc3)cc2)CCC1
The essentials:
as §1

Compound in assay [4]: NCC(=O)Nc1ccc(-n2nc(C(F)(F)F)cc2-c2ccc3c(ccc4ccccc43)c2)cc1
Summed up:
as §1

Compound in a further assay: Nc1ccccc1NC(=O)c1ccc(CNC(=O)OCc2cccnc2)cc1 [entinostat]
Summed up:
as §1

Compound in another assay: O=C(CCCCCCC(=O)Nc1ccccc1)NO [vorinostat]
The essentials:
as §1

Compound in the next assay: O=C(CCCCCCNC(=O)c1cnc(N(c2ccccc2)c2ccccc2Cl)nc1)NO [citarinostat]
Summed up:
as §1

Compound in a further assay: O=C(O)c1ccc2c(c1)nc(Nc1cccc(Cl)c1)c1ccncc12 [silmitasertib]
Summed up:
as §1

Compound in assay [5]: O=C1NC(=O)C(c2cnc3ccccn23)=C1c1cn2c3c(cc(F)cc13)CN(C(=O)N1CCCCC1)CC2
Summed up:
as §1

Compound in assay [6]: c1cc(OCCN2CCCCC2)cc(-c2n[nH]c3ccc(-c4nnc[nH]4)cc23)c1
The essentials: as §1

On to DNAJA1 (UniProt P31689), for which the log2 fold change is inactive: -0.042 in [1]; inactive: -0.026 in [2]; inactive: -0.038 in assay [3]; inactive: -0.088 in assay [4]; inactive: 0.005 with entinostat; inactive: 0.026 with vorinostat. For the same target, the log2 fold change is inactive: 0.017 with citarinostat, inactive: 0.001 with silmitasertib, inactive: -0.061 in [5] and inactive: -0.09 in assay [6].
Consider DHX16 (UniProt O60231), for which the log2 fold change is inactive: 0.005 in assay [1]; inactive: 0.018 in assay [2]; inactive: -0.021 in [3]; inactive: -0.044 in [4]; inactive: 0.013 with entinostat; inactive: 0.001 with vorinostat. Besides, the log2 fold change with citarinostat is inactive: 0.049; with silmitasertib, inactive: -0.142; in [5], inactive: -0.012; in assay [6], inactive: -0.041.
Regarding DERL1 (UniProt Q9BUN8), the log2 fold change in assay [1] was inactive: 0.057; in assay [2], inactive: 0.025; in [3], inactive: -0.082; in assay [4], inactive: 0.036; with entinostat it was inactive: -0.049; with vorinostat it was inactive: -0.124. Also, the log2 fold change was inactive: 0.001 with citarinostat, inactive: 0.013 in the assay with silmitasertib, inactive: -0.007 in assay [5] and inactive: -0.008 in assay [6].
Consider DHX57 (UniProt Q6P158), for which the log2 fold change in [1] was inactive: 0.029; in [2] it was inactive: 0.055; in assay [3], inactive: 0.131; in assay [4], inactive: 0.024; with entinostat it was inactive: 0; with vorinostat it was inactive: -0.025. Besides, the log2 fold change is inactive: 0 in the assay with citarinostat, inactive: 0.068 with silmitasertib, inactive: 0.062 in [5] and inactive: -0.114 in assay [6].
With DGCR2 (UniProt P98153), the log2 fold change in [1] is inactive: -0.039; in assay [2] it was inactive: -0.019; in assay [3] it was inactive: -0.167; in [4], inactive: -0.031; with entinostat, inactive: -0.051; with vorinostat, inactive: 0.076. For the same target, the log2 fold change in the assay with citarinostat is inactive: -0.04; with silmitasertib, inactive: 0.027; in assay [5] it was inactive: 0.012; in [6], inactive: -0.051.
Take DDX39B isoform 2 (UniProt Q13838): the log2 fold change was inactive: -0.016 in assay [1]; inactive: -0.005 in assay [2]; inactive: 0.069 in [3]; inactive: 0.004 in [4]; inactive: -0.041 with entinostat; inactive: -0.027 with vorinostat. Besides, the log2 fold change with citarinostat was inactive: -0.015; in the assay with silmitasertib, inactive: 0.001; in assay [5], inactive: 0.048; in assay [6], inactive: -0.073.
Take DDX4 (UniProt Q9NQI0): the log2 fold change was active: -1.13 in assay [1]; inactive: 0.01 in assay [2]; inactive: 0.297 in [3]; inactive: -0.35 in assay [4]; inactive: -0.405 with entinostat; inactive: -0.253 with vorinostat. Besides, the log2 fold change with citarinostat is inactive: -0.146; in the assay with silmitasertib, inactive: 0.171; in [5], inactive: -0.273; in [6], inactive: -0.194.
In the case of DHX30 isoform 2 (UniProt Q7L2E3), the log2 fold change in assay [1] is inactive: 0.052; in assay [2], inactive: -0.022; in [3], inactive: 0.103; in [4], inactive: 0.079; with entinostat, inactive: -0.017; with vorinostat, inactive: 0.036. The log2 fold change with citarinostat is inactive: -0.04; in the assay with silmitasertib, inactive: 0.061; in assay [5], inactive: 0.138; in [6], inactive: -0.139.
In the case of DMTN (UniProt Q08495), the log2 fold change in assay [1] was inactive: -0.043; in assay [2], inactive: 0.079; in [3] it was inactive: 0.012; in assay [4], inactive: 0.024; in the assay with entinostat, inactive: -0.036; with vorinostat, inactive: 0.037. Besides, the log2 fold change in the assay with citarinostat was inactive: 0.004; in the assay with silmitasertib, inactive: 0; in assay [5], inactive: -0.023; in assay [6] it was inactive: 0.034.
As for DDX39A (UniProt O00148), the log2 fold change was inactive: -0.067 in [1]; inactive: -0.04 in assay [2]; inactive: 0.057 in assay [3]; inactive: -0.042 in assay [4]; inactive: -0.003 in the assay with entinostat; inactive: 0.048 with vorinostat. The log2 fold change is inactive: -0.006 in the assay with citarinostat, inactive: -0.011 with silmitasertib, inactive: -0.107 in assay [5] and inactive: -0.233 in assay [6].
As for DIS3L2 (UniProt Q8IYB7), the log2 fold change was inactive: -0.105 in [1]; inactive: 0.018 in assay [2]; inactive: -0.1 in assay [3]; inactive: 0.008 in assay [4]; inactive: -0.028 with entinostat; inactive: -0.006 in the assay with vorinostat. Further, the log2 fold change in the assay with citarinostat is inactive: 0.037; with silmitasertib, inactive: 0.007; in assay [5], inactive: -0.04; in [6], inactive: -0.102.
For DCXR (UniProt Q7Z4W1), the log2 fold change was inactive: -0.005 in assay [1]; inactive: -0.034 in [2]; inactive: 0.021 in [3]; inactive: -0.001 in [4]; inactive: -0.049 with entinostat; inactive: -0.034 with vorinostat. Moreover, the log2 fold change was inactive: 0.029 in the assay with citarinostat, inactive: -0.002 with silmitasertib, inactive: -0.019 in assay [5] and inactive: -0.015 in [6].
With DNAJA2 (UniProt O60884), the log2 fold change in assay [1] is inactive: -0.01; in [2], inactive: -0.022; in [3] it was inactive: -0.056; in assay [4] it was inactive: 0.024; with entinostat, inactive: 0.02; with vorinostat, inactive: 0.041. In addition, the log2 fold change was inactive: 0.037 with citarinostat, inactive: -0.013 in the assay with silmitasertib, inactive: -0.018 in assay [5] and inactive: 0.004 in assay [6].
In the case of DFFB (UniProt O76075), the log2 fold change is inactive: 0.028 in assay [1]; inactive: -0.064 in [2]; inactive: -0.037 in assay [3]; inactive: 0.069 in assay [4]; inactive: 0 in the assay with entinostat; inactive: 0.016 with vorinostat. Further, the log2 fold change was inactive: 0.057 in the assay with citarinostat, inactive: 0.087 with silmitasertib, inactive: 0.048 in assay [5] and inactive: -0.08 in assay [6].
With DDX5 (UniProt P17844), the log2 fold change is inactive: -0.139 in assay [1]; inactive: -0.032 in [2]; inactive: -0.21 in [3]; inactive: -0.135 in assay [4]; inactive: 0.067 in the assay with entinostat; inactive: 0.073 with vorinostat. The log2 fold change with citarinostat is inactive: 0.072; with silmitasertib, inactive: -0.088; in [5], inactive: -0.158; in [6] it was inactive: -0.039.
